Read-outs that look alike come from different tables or passages of the source.
Test system: Pseudomonas aeruginosa
Conditions: for Therapeutic index HC50/MIC: HC50 over geometric mean MIC; for Therapeutic index HC50/MIC / Therapeutic index Fold (improvement compared to D1): P. aeruginosa; for Pseudomonas aeruginosa Therapeutic index (HC50/MICGM): Table 12

SMILES | Therapeutic index HC50/MIC (Brain Heart Infusion medium) | Therapeutic index Fold (improvement compared to D1) (Brain Heart Infusion medium) | Therapeutic index HC50/MIC (Mueller Hinton medium) | Therapeutic index Fold (improvement compared to D1) (Mueller Hinton medium) | Pseudomonas aeruginosa Therapeutic index (HC50/MICGM)
CC[C@@H](C)[C@@H](NC(=O)[C@@H](C)NC(=O)[C@@H](CCCCN)NC(=O)[C@@H](CC(C)C)NC(=O)[C@@H](CC(C)C)NC(=O)[C@H](NC(=O)[C@@H](CCCCN)NC(=O)[C@@H](CC(C)C)NC(=O)[C@@H](C)NC(=O)[C@@H](CCCCN)NC(=O)[C@@H](CCCCN)NC(=O)[C@@H](CCCCN)NC(=O)[C@@H](C)NC(=O)[C@@H](CCCCN)NC(=O)[C@@H](CO)NC(=O)[C@@H](Cc1ccccc1)NC(=O)[C@H](NC(=O)[C@@H](CCCCN)NC(=O)[C@@H](CC(C)C)NC(=O)[C@@H](Cc1ccccc1)NC(=O)[C@@H](CO)NC(=O)[C@@H](CCCCN)NC(=O)[C@@H](Cc1c[nH]c2ccccc12)NC(=O)[C@@H](CO)NC(C)=O)[C@H](C)O)[C@H](C)O)C(=O)N[C@H](CO)C(=O)N[C@H](CCCCN)C(N)=O [Peptide D21, Ac-SWKSFLKTFSKAKKKALKTLLKAISK-amide] | 14.3 | 1.06 | 14.2 | 0.42 | –
CC[C@@H](C)[C@@H](NC(=O)[C@@H](C)NC(=O)[C@@H](CO)NC(=O)[C@@H](CC(C)C)NC(=O)[C@@H](CC(C)C)NC(=O)[C@H](NC(=O)[C@@H](CCCCN)NC(=O)[C@@H](CC(C)C)NC(=O)[C@@H](C)NC(=O)[C@@H](CCCCN)NC(=O)[C@@H](CCCCN)NC(=O)[C@@H](CCCCN)NC(=O)[C@@H](C)NC(=O)[C@@H](CCCCN)NC(=O)[C@@H](CO)NC(=O)[C@@H](Cc1ccccc1)NC(=O)[C@H](NC(=O)[C@@H](CO)NC(=O)[C@@H](CC(C)C)NC(=O)[C@@H](Cc1ccccc1)NC(=O)[C@@H](CO)NC(=O)[C@@H](CO)NC(=O)[C@@H](Cc1c[nH]c2ccccc12)NC(=O)[C@@H](CO)NC(C)=O)[C@H](C)O)[C@H](C)O)C(=O)N[C@H](CO)C(=O)N[C@H](CO)C(N)=O [Peptide D17, Ac-SWSSFLSTFSKAKKKALKTLLSAISS-amide] | 1.8 | 0.13 | 2.8 | 0.08 | –
CC[C@@H](C)[C@@H](NC(=O)[C@@H](C)NC(=O)[C@@H](CCCCN)NC(=O)[C@@H](CC(C)C)NC(=O)[C@@H](CC(C)C)NC(=O)[C@H](NC(=O)[C@@H](CCCCN)NC(=O)[C@@H](CC(C)C)NC(=O)[C@@H](C)NC(=O)[C@@H](CCCCN)NC(=O)[C@@H](CCCCN)NC(=O)[C@@H](CCCCN)NC(=O)[C@@H](C)NC(=O)[C@@H](CCCCN)NC(=O)[C@@H](CO)NC(=O)[C@@H](Cc1ccccc1)NC(=O)[C@H](NC(=O)[C@@H](CCCCN)NC(=O)[C@@H](CC(C)C)NC(=O)[C@@H](Cc1ccccc1)NC(=O)[C@@H](CO)NC(=O)[C@@H](CCCCN)NC(=O)[C@@H](Cc1c[nH]c2ccccc12)NC(=O)[C@@H](CO)NC(C)=O)[C@H](C)O)[C@H](C)O)C(=O)N[C@H](CO)C(=O)N[C@H](CO)C(N)=O [Peptide D20, Ac-SWKSFLKTFSKAKKKALKTLLKAISS-amide] | 7.8 | 0.58 | 6.2 | 0.18 | –
CC[C@@H](C)[C@@H](NC(=O)[C@@H](C)NC(=O)[C@@H](CO)NC(=O)[C@@H](CC(C)C)NC(=O)[C@@H](CC(C)C)NC(=O)[C@H](NC(=O)[C@@H](CCCCN)NC(=O)[C@@H](CC(C)C)NC(=O)[C@@H](C)NC(=O)[C@@H](CCCCN)NC(=O)[C@@H](CCCCN)NC(=O)[C@@H](CCCCN)NC(=O)[C@@H](C)NC(=O)[C@@H](CCCCN)NC(=O)[C@@H](CO)NC(=O)[C@@H](Cc1ccccc1)NC(=O)[C@H](NC(=O)[C@@H](CCCCN)NC(=O)[C@@H](CC(C)C)NC(=O)[C@@H](Cc1ccccc1)NC(=O)[C@@H](CO)NC(=O)[C@@H](CO)NC(=O)[C@@H](Cc1c[nH]c2ccccc12)NC(=O)[C@@H](CO)NC(C)=O)[C@H](C)O)[C@H](C)O)C(=O)N[C@H](CO)C(=O)N[C@H](CO)C(N)=O [Peptide D18, Ac-SWSSFLKTFSKAKKKALKTLLSAISS-amide] | 3.7 | 0.28 | 5.6 | 0.16 | –
CC[C@@H](C)[C@@H](NC(=O)[C@@H](C)NC(=O)[C@@H](CCCCN)NC(=O)[C@@H](CC(C)C)NC(=O)[C@@H](CC(C)C)NC(=O)[C@H](NC(=O)[C@@H](CCCCN)NC(=O)[C@@H](CC(C)C)NC(=O)[C@@H](C)NC(=O)[C@@H](CCCCN)NC(=O)[C@@H](CCCCN)NC(=O)[C@@H](CCCCN)NC(=O)[C@@H](C)NC(=O)[C@@H](CCCCN)NC(=O)[C@@H](CO)NC(=O)[C@@H](Cc1ccccc1)NC(=O)[C@H](NC(=O)[C@@H](CCCCN)NC(=O)[C@@H](CC(C)C)NC(=O)[C@@H](Cc1ccccc1)NC(=O)[C@@H](CO)NC(=O)[C@@H](CO)NC(=O)[C@@H](Cc1c[nH]c2ccccc12)NC(=O)[C@@H](CO)NC(C)=O)[C@H](C)O)[C@H](C)O)C(=O)N[C@H](CO)C(=O)N[C@H](CO)C(N)=O [Peptide D19, Ac-SWSSFLKTFSKAKKKALKTLLKAISS-amide] | 3.7 | 0.27 | 4.6 | 0.14 | –
CC(=O)N[C@H](CCCCN)C(=O)N[C@H](CC(C)C)C(=O)N[C@H](CCCCN)C(=O)N[C@H](CO)C(=O)N[C@H](CC(C)C)C(=O)N[C@H](CC(C)C)C(=O)N[C@H](CCCCN)C(=O)N[C@@H](C(=O)N[C@H](CC(C)C)C(=O)N[C@H](CO)C(=O)N[C@H](CCCCN)C(=O)N[C@H](CC(C)C)C(=O)N[C@H](CCCCN)C(=O)N[C@H](CCCCN)C(=O)N[C@H](CCCCN)C(=O)N[C@H](CCCCN)C(=O)N[C@H](CC(C)C)C(=O)N[C@H](CCCCN)C(=O)N[C@@H](C(=O)N[C@H](CC(C)C)C(=O)N[C@H](CC(C)C)C(=O)N[C@H](CCCCN)C(=O)N[C@H](C)C(=O)N[C@H](CC(C)C)C(=O)N[C@H](CO)C(=O)N[C@H](CCCCN)C(N)=O)[C@H](C)O)[C@H](C)O [Peptide D23, Ac-KLKSLLKTLSKLKKKKLKTLLKALSK-amide] | – | – | – | – | 95.1
CC[C@@H](C)[C@@H](NC(=O)[C@@H](C)NC(=O)[C@@H](CCCCN)NC(=O)[C@@H](CC(C)C)NC(=O)[C@@H](CC(C)C)NC(=O)[C@H](NC(=O)[C@@H](CCCCN)NC(=O)[C@@H](CC(C)C)NC(=O)[C@@H](CCCCN)NC(=O)[C@@H](CCCCN)NC(=O)[C@@H](CCCCN)NC(=O)[C@@H](CCCCN)NC(=O)[C@@H](CC(C)C)NC(=O)[C@@H](CCCCN)NC(=O)[C@@H](CO)NC(=O)[C@@H](Cc1ccccc1)NC(=O)[C@H](NC(=O)[C@@H](CCCCN)NC(=O)[C@@H](CC(C)C)NC(=O)[C@@H](Cc1ccccc1)NC(=O)[C@@H](CO)NC(=O)[C@@H](CCCCN)NC(=O)[C@@H](Cc1c[nH]c2ccccc12)NC(=O)[C@@H](CCCCN)NC(C)=O)[C@H](C)O)[C@H](C)O)C(=O)N[C@H](CO)C(=O)N[C@H](CCCCN)C(N)=O [Peptide D13, Ac-KWKSFLKTFSKLKKKKLKTLLKAISK-amide] | – | – | – | – | 42.3
CC[C@@H](C)[C@@H](NC(=O)[C@@H](CC(C)C)NC(=O)[C@@H](CCCCN)NC(=O)[C@@H](CC(C)C)NC(=O)[C@@H](CC(C)C)NC(=O)[C@H](NC(=O)[C@@H](Cc1c[nH]cn1)NC(=O)[C@@H](CC(C)C)NC(=O)[C@@H](CCCCN)NC(=O)[C@H](NC(=O)[C@@H](CCCCN)NC(=O)[C@@H](CCCCN)NC(=O)[C@@H](CC(C)C)NC(=O)[C@@H](CO)NC(=O)[C@@H](CCCCN)NC(=O)[C@@H](Cc1ccccc1)NC(=O)[C@H](NC(=O)[C@@H](CCCCN)NC(=O)[C@@H](CC(C)C)NC(=O)[C@@H](Cc1ccccc1)NC(=O)[C@@H](CO)NC(=O)[C@@H](CCCCN)NC(=O)[C@@H](Cc1c[nH]c2ccccc12)NC(=O)[C@@H](CCCCN)NC(C)=O)[C@H](C)O)[C@H](C)O)[C@H](C)O)C(=O)N[C@H](CO)C(=O)N[C@H](CO)C(N)=O [Peptide D5, Ac-KWKSFLKTFKSLKKTKLHTLLKLISS-amide] | 2.1 | 0.16 | 4.3 | 0.13 | 4.3

From patent US9352015B2, “Antimicrobial peptides” (priority 2009, dated 2016)
